Results from publication PMC4830570, “CD36 Differently Regulates Macrophage Responses to Smooth and Rough Lipopolysaccharide” (PLoS ONE, 2016).
Results are given in words; binding and its absence hold for the method and conditions named. Some binding calls cover weakened binding; strength is not graded here. Sequences can lack the tags named with a protein. Each block holds one binder with its values, some of them ahead of it.

The chains behind the UniProt entries cited, without tags or fusion partners.
UniProt Q08857: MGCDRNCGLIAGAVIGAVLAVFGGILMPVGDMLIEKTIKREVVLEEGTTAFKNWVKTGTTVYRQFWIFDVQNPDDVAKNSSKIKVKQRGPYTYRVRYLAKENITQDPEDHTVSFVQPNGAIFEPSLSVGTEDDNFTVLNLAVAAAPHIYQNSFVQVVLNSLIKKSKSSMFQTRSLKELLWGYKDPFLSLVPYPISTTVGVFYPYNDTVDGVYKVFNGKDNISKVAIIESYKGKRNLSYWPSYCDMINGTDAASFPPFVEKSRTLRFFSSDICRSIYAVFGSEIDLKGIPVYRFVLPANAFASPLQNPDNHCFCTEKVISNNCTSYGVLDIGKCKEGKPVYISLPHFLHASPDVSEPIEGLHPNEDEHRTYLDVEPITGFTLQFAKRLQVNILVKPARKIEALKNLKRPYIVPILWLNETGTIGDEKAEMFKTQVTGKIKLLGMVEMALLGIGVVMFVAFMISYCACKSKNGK

What was measured:
[1] = target: CD36 on the surface of mouse peritoneal exudate macrophages (mouse (endogenous in peritoneal exudate macrophages)) (UniProt Q08857); assay: cellular ELISA; rCD14 with 200 ng/ml S-LPS on adherent PEMs, 40 min co-incubation at 37°C, in the absence of serum; detected with HRP-anti-Fc; only the binder purified
[2] = target: CD36 on the surface of mouse peritoneal exudate macrophages (mouse (endogenous in peritoneal exudate macrophages)) (UniProt Q08857); assay: cellular ELISA; 5 μg/ml rCD14 without LPS on adherent PEMs, 50 min at 37°C in FCS-RPMI; bound rCD14 detected with HRP-anti-Fc; only the binder purified
[3] = target: T1, recombinant mouse CD14 tagged with the Fc fragment of human IgG1 (mouse) (UniProt P10810); assay: ELISA; receptor (5 μg/ml) adsorbed to plate; soluble rLBP at different concentrations, with or without 1 μg/ml S-LPS, 90 min at 37°C in FCS-PBS (10% FCS in PBS); bound rLBP detected with HRP-anti-6×Histidine; both purified
T1 sequence: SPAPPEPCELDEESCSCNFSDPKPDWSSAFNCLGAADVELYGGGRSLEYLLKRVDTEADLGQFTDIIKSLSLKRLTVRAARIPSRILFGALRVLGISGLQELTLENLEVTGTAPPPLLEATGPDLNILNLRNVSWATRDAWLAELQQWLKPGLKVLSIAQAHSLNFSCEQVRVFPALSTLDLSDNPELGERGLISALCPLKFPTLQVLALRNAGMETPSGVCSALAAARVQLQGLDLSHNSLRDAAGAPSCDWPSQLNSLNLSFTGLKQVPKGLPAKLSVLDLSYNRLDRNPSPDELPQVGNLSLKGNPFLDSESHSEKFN

binding [1]: binds
binding [2]: binds weakly
B1: recombinant mouse CD14 tagged with the Fc fragment of human IgG1 (Fc fusion, UniProt P10810 16-336, looked up)
chain: T1 sequence
notes: CD14, mouse, recombinant soluble receptor from R&D Systems; also called rCD14; source: bought: R&D Systems

binding [3]: binds weakly
B2: recombinant mouse LPS-binding protein (protein, UniProt Q61805 25-481)
chain: GVNPGVVARITDKGLAYAAKEGLVALQRELYKITLPDFSGDFKIKAVGRGQYEFHSLEIQNCELRGSSLKLLPGQGLSLAISDSSIGVRGKWKVRKSFLKLHGSFDLDVKGVTISVDLLLGMDPSGRPTVSASGCSSRICDLDVHISGNVGWLLNLFHNQIESKLQKVLENKVCEMIQKSVTSDLQPYLQTLPVTAEIDNVLGIDYSLVAAPQAKAQVLDVMFKGEIFNRNHRSPVATPTPTMSLPEDSKQMVYFAISDYAFNIASRVYHQAGYLNFSITDDMLPHDSGIRLNTKAFRPFTPQIYKKYPDMKLELLGTVVSAPILNVSPGNLSLAPQMEIEGFVILPTSAREPVFRLGVVTNVFASLTFNNSKVTGMLHPDKAQVRLIESKVGMFNVNLFQAFLNYYLLNSLYPDVNAELAQGFPLPLPRHIQLHDLDFQIRKDFLYLGANVQYMRV
